{"source": "PubChem BioAssay AID1347076", "about": "(National Center for Advancing Translational Sciences (NCATS), 2019)", "note": "Hit rate of the full screen: of about 400,000 compounds, about 13,000 (3.2%) were called active. This list was built around the results that the source calls inconclusive (neither active nor inactive); the mix of calls is not that of the screen. Calls follow the shape of the dose curve; as a rule, active = well fitted cell-killing curve with a large enough effect; inconclusive = small, poorly fitted or top-dose-only effect, or effect the other way; inactive = flat fitted curve, though single readings scatter. Where the call is inconclusive, the potency comes from a doubtful curve fit."}
{"test": "qHTS assay for MDR1-selective chemotherapeutics: Primary screen using the drug-selected MDR subline cells KB-V1; also: nearly all actives have a fitted effect of over 60% in size; also: potency is read from the fitted curve at half-maximal effect; as to activity change, negative = cytotoxicity: % is scaled to controls: 0 for no effect and ±100 for the full control effect", "details": "KB-V1 MDR cells viability, CellTiter-Glo, 72 h; activity change, negative = cytotoxicity: at 46.1 µM (top of the series)", "in_short": "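Following 72 h at 37 degrees C with compound, KB-V1 cell viability was read by CellTiter-Glo luminescence, medium being phenol-red-free DMEM plus 10% FBS; concentration-response parameters came from normalized, curve-fitted qHTS data.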"}
{"compound": "CCOc1ccc(NC(=O)CC2C(=O)N(c3ccc(C)cc3)C(=O)N2Cc2ccc(OC)cc2)cc1", "note": "(stereo not given)", "Potency": "inactive"}
{"compound": "CCOC(=O)N1CCN(C(=O)CSc2nc(=O)n3ccccc3n2)CC1", "Potency": "inactive"}
{"compound": "O=C(N=Nc1c(O)n(Cc2ccccc2)c2ccccc12)c1ccc(O)cc1", "Potency": "active: 14.6 µM"}
{"compound": "CCc1cccc(C)c1NC(=O)c1cn2c3c(ccc(Cl)c3c1=O)OC(C)C2", "note": "(stereo not given)", "Potency": "inactive"}
{"compound": "COc1cccc(C(=O)NCCS(=O)(=O)N2CCCCCC2)c1", "Potency": "active: 11.6 µM"}
{"compound": "O=C(Nc1ccc(Cl)cc1)C(Cl)C(=O)c1ccccc1", "note": "(stereo not given)", "Potency": "inactive"}
{"compound": "Cc1cc(-c2nc3ncccc3o2)ccc1NC(=O)c1ccc(Cl)cc1", "Potency": "inactive"}
{"compound": "CCCCOc1ccc(C(O)(CCC)CCN2CCOCC2)cc1", "note": "(stereo not given)", "Potency": "active: 10.3 µM"}
{"compound": "CCc1nc2c(OCc3ccc(F)c(F)c3)cccn2c1N(C)C(=O)c1ccc(OC)cc1", "Potency": "inconclusive: 18.4 µM [cytotoxic, partial curve, poor fit]"}
{"compound": "Cc1ccc(C)c(NC(=O)c2cc3ccccn3n2)c1", "Potency": "inconclusive: 3.66 µM [rising, partial curve, poor fit]"}
{"compound": "O=c1c2cc(NC(=S)NC3CCCCC3)ccc2nc2n1CCCCC2", "Potency": "inconclusive: 18.4 µM [cytotoxic, partial curve, poor fit]"}
{"compound": "CCOC(=O)c1c(NC(=O)CSc2nnnn2-c2ccc3c(c2)OCCO3)sc(C)c1C", "Potency": "inconclusive: 23.1 µM [cytotoxic, partial curve]"}
{"compound": "COc1ccc(-n2nnnc2C(c2ccccc2OC(F)(F)F)N2CCN(C/C=C/c3ccccc3)CC2)cc1", "note": "(stereo not given)", "Potency": "inconclusive: 25.9 µM [cytotoxic, single point]"}
{"compound": "CCNC(=O)CN1C(=O)NC2(CCOc3ccccc32)C1=O", "note": "(stereo not given)", "Potency": "inconclusive: 8.2 µM [rising, partial curve]"}
{"compound": "O=C(Nc1ccc(Oc2nnc(-c3ccccc3)c3ccccc23)cc1)c1ccccc1", "Potency": "inactive"}
{"compound": "COc1ccc(/C=C/C(=O)NCCSCc2ccco2)cc1OC", "Potency": "inconclusive: 29.1 µM [cytotoxic, single point]"}
{"compound": "C[C@@H]1CNC(=O)c2c(C(=O)Nc3ccc(CNC(=O)OC(C)(C)C)cc3)ncn21", "Potency": "inconclusive: 23.1 µM [cytotoxic, partial curve, poor fit]"}
{"compound": "CCOC(=O)c1cnc(N)nc1C(F)(F)F", "Potency": "inconclusive: 23.1 µM [cytotoxic, partial curve]"}
{"compound": "O=C(OCc1ccccc1)c1ccc(Br)o1", "Potency": "inconclusive: 29.1 µM [rising, partial curve, poor fit]"}
{"compound": "Cc1ccc(S(=O)(=O)NCc2ccccc2)cc1C(=O)N1CCCC(C(F)(F)F)C1", "note": "(stereo not given)", "Potency": "inconclusive: 14.6 µM [cytotoxic, single point]"}
{"compound": "CC1=C(C(=O)N(C(C)C)C(C)C)CC(CC(=O)NC(c2ccccc2)c2ccccc2)C(=O)N1CCCN1CCCC1=O", "note": "(stereo not given)", "Potency": "inactive"}
{"compound": "CCOC(=O)C1(Cc2ccc(OC)cc2)CCN(C(=O)c2cccc3nccnc23)CC1", "Potency": "inconclusive: 29.1 µM [cytotoxic, single point]"}
{"compound": "CN(C)c1ccc(-c2nnn(Cc3ccccc3Br)n2)cc1", "Potency": "inconclusive: 18.4 µM [cytotoxic, single point]"}
{"compound": "O=[N+]([O-])c1cc(-n2cccc2)ccc1N1CCOCC1", "Potency": "active: 6.51 µM"}
{"compound": "CCc1ccc(NC(=O)CN(c2ccc(OC)cc2)S(=O)(=O)c2c(C)nn(C)c2C)cc1", "Potency": "inconclusive: 20.6 µM [cytotoxic, partial curve, poor fit]"}
{"compound": "CCOc1ccc(-c2nonc2NC(=O)COc2ccccc2)cc1", "Potency": "inactive"}
{"compound": "CCOC(=O)C1CCCN(C(=O)CNC(=O)c2nn(-c3ccc(OC)c(Cl)c3)c(=O)c3ccccc23)C1", "note": "(stereo not given)", "Potency": "inconclusive: 29.1 µM [cytotoxic, single point]"}
{"compound": "Cc1cccc(NC(=O)c2ccccc2[N+](=O)[O-])n1", "Potency": "inactive"}
{"compound": "CCOC(=O)c1ccc(NC(=O)c2c(NCc3cc(OC)c(OC)cc3OC)sc3c2CCCC3)cc1", "Potency": "inactive"}
{"compound": "CCOC(=O)c1c(C)[nH]c(C(=O)COC(=O)COc2ccc(OC)cc2)c1C", "Potency": "active: 18.4 µM"}
{"compound": "Cc1nc2ccccc2c(=O)n1-c1cccc(NC(=O)c2cccs2)c1", "Potency": "inactive"}
{"compound": "CC1C/C(=C\\c2cccnc2)C(=O)/C(=C/c2cccnc2)C1", "note": "(stereo not given)", "Potency": "inconclusive: 2.31 µM [cytotoxic, full curve, poor fit]"}
{"compound": "CC1=C(C(=O)OCC2CCCCC2)C(c2cccc(F)c2F)CC(=O)N1", "note": "(stereo not given)", "Potency": "inconclusive: 29.1 µM [rising, single point]"}
{"compound": "O=C(Cc1cccc2ccccc12)NC(NC(=S)Nc1ccccc1Cl)C(Cl)(Cl)Cl", "note": "(stereo not given)", "Potency": "inconclusive: 20.6 µM [cytotoxic, single point]"}
{"compound": "CCN(CC(=O)Nc1cc(S(=O)(=O)N2CCCCC2)ccc1C)Cc1ccccc1", "Potency": "inconclusive: 25.9 µM [cytotoxic, partial curve, poor fit]"}
{"compound": "COCCNC(=O)c1ccc(N2CCCCC2)c(NS(=O)(=O)c2ccc(C)cc2)c1", "Potency": "inconclusive: 13 µM [cytotoxic, partial curve, poor fit]"}
{"compound": "CCOC(=O)c1c(NC(=O)C(C)N2CCN(C(=O)c3ccco3)CC2)sc2c1CCCC2", "note": "(stereo not given)", "Potency": "inconclusive: 23.1 µM [cytotoxic, partial curve, poor fit]"}
{"compound": "CNC(=O)c1ccc2nc(-c3cccc(C)c3)c(-c3cccc(C)c3)nc2c1", "Potency": "inactive"}
{"compound": "c1ccc(Nc2nc(NCC3CCCO3)c3ccccc3n2)cc1", "note": "(stereo not given)", "Potency": "active: 20.6 µM"}
{"compound": "FC(F)(F)c1nnc2c(Sc3ccccn3)nc3ccccc3n12", "Potency": "inconclusive: 29.1 µM [cytotoxic, single point]"}
{"compound": "O=C(c1ccccc1Cl)N1CCn2c1nc1ccccc12", "Potency": "inactive"}
{"compound": "CC(OC(=O)c1ccc2c(=O)n3c(nc2c1)CCCCC3)C(=O)Nc1ncc(Cl)cc1Cl", "note": "(stereo not given)", "Potency": "inconclusive: 20.6 µM [cytotoxic, single point]"}
{"compound": "Cc1c(C(=O)Nc2cc(S(=O)(=O)N3CCOCC3)ccc2N2CCN(C)CC2)oc2ccccc12", "Potency": "inconclusive: 9.2 µM [cytotoxic, partial curve, poor fit]"}
{"compound": "COc1ccccc1N1CCN(C(=O)c2cc3c(C)nc4ccccc4c3o2)CC1", "Potency": "inconclusive: 1.46 µM [cytotoxic, full curve]"}
{"compound": "Cc1cccc(-n2c(SCC(=O)N3CCCC3)nnc2-c2ccccn2)c1C", "Potency": "inactive"}
{"compound": "COc1ccccc1N1CCN(S(=O)(=O)CCNC(=O)CC2CCCC2)CC1", "activity change, negative = cytotoxicity": "inconclusive: -36.3% [cytotoxic]"}
{"compound": "O=C(/C=C/c1cccnc1)c1cccc(O)c1", "Potency": "inconclusive: 29.1 µM [cytotoxic, single point]"}
{"compound": "CCc1ccc(N2CC(C(=O)N3CCN(c4ccccn4)CC3)CC2=O)cc1", "note": "(stereo not given)", "Potency": "inconclusive: 13 µM [cytotoxic, partial curve]"}
{"compound": "Cc1ccc2c(c1)C(=O)C(=O)N2CC(=O)Nc1ccccc1NC(=O)c1ccccn1", "Potency": "inactive"}
{"compound": "CCOc1ccc(Nc2nc(Cc3nnc(SCC(=O)c4ccc(C)c(C)c4)o3)cs2)cc1", "Potency": "active: 13 µM"}
{"compound": "COc1cccc(CNCCSc2nnnn2C)c1OCc1ccc(Cl)cc1", "Potency": "inactive"}
{"compound": "COc1ccc(N2CCN(C(=O)c3cn(Cc4ccccc4)nc3-c3cccnc3)CC2)cc1", "Potency": "inactive"}
{"compound": "COc1cccc(NS(=O)(=O)c2ccc(OC)c(OC)c2)c1", "Potency": "inconclusive: 29.1 µM [cytotoxic, single point]"}
{"compound": "NC1=NC(=O)/C(=C/c2ccccc2OCC(=O)Nc2ccc(F)cc2)S1", "Potency": "inactive"}
{"compound": "CC(=O)c1ccc(S(=O)(=O)NCc2cccnc2)cc1", "Potency": "inconclusive: 14.6 µM [rising, partial curve, poor fit]"}
{"compound": "COc1ccc(NC(=O)c2c[nH]n3c(=O)cc(C4CCN(C(=O)OC(C)(C)C)CC4)nc23)cc1Cl", "Potency": "inconclusive: 29.1 µM [rising, single point]"}
{"compound": "COc1ccc(NS(=O)(=O)/C=C/c2ccc(OC)c(OC)c2)cc1", "Potency": "inconclusive: 23.1 µM [cytotoxic, single point]"}
{"compound": "Cc1cc(N/N=C/c2cccc(Cl)c2)nc(NCc2ccccc2)n1", "Potency": "inconclusive: 23.1 µM [cytotoxic, single point]"}
{"compound": "COc1nc(-c2ccc(Cl)cc2)nnc1C", "Potency": "inconclusive: 25.9 µM [cytotoxic, single point]"}
{"compound": "Cc1ccc(Nc2c(-c3ccc(N4CCOCC4)cc3)nc3ncccn23)cc1C", "Potency": "inactive"}
{"compound": "CCOC(=O)c1ccc2c(c1)N(CC(=O)Nc1ccc(CC)cc1)C(=O)c1ccccc1S2", "Potency": "inconclusive: 6.51 µM [cytotoxic, partial curve]"}
{"compound": "Clc1ccc(Nc2ccccc2)nn1", "Potency": "inactive"}
{"compound": "O=C(Nc1ccc(Nc2ccccc2)cc1)c1c(F)c(F)c(F)c(F)c1F", "Potency": "inconclusive: 18.4 µM [cytotoxic, single point]"}
{"compound": "O=C(CNC(=O)c1ccc(OC(F)F)cc1)NCc1ccccn1", "Potency": "inconclusive: 29.1 µM [cytotoxic, partial curve, poor fit]"}
{"compound": "CN(C)CCCN1c2ccccc2Sc2ccccc21", "Potency": "inconclusive: 29.1 µM [cytotoxic, single point]"}
{"compound": "CCOCCCNC(=O)C(NC(=O)c1ccccc1O)c1ccccc1", "note": "(stereo not given)", "Potency": "inconclusive: 29.1 µM [cytotoxic, single point]"}
{"compound": "CCN(Cc1ccccc1)c1ccc(N=Nc2nn(C)c(C)c2[N+](=O)[O-])cc1", "Potency": "active: 6.51 µM"}
{"compound": "CCCN(CC(=O)Nc1ccccc1C)C(=O)c1ccc(COc2ccccc2)cc1", "Potency": "inconclusive: 6.51 µM [cytotoxic, partial curve]"}
{"compound": "N#CCCN1CCN(CCC#N)c2ccccc21", "Potency": "inconclusive: 23.1 µM [cytotoxic, single point]"}
{"compound": "CCCCn1c2ccc(F)cc2c2nnc(SCCN3CCOCC3)nc21", "Potency": "inconclusive: 0.58 µM [cytotoxic, full curve]"}
